Publication PMC4876403
Results are given in words; binding and its absence hold for the method and conditions named. For some of these results: Binding seen in cells or lysates may run through a third protein. Some results given as binding are weak or reduced against the parent protein; the word gives no strength. For some of these results: Tags and fused reporters may be left off the sequences shown. Blank lines part the entries; values can stand above or below the binder they belong to.

Experiments:
[1] = biological target: T1, MBP-14-3-3γ (human) (UniProt P61981); test: pull-down; MBP-14-3-3γ from BL-21 on MBP agarose beads; lysates of HEK293T cells with GFP-seg(a) or GFP-seg(a)-T9A; 2 h at 4 °C; washed with ice-cold PBS; western blot; only the target purified
T1 sequence: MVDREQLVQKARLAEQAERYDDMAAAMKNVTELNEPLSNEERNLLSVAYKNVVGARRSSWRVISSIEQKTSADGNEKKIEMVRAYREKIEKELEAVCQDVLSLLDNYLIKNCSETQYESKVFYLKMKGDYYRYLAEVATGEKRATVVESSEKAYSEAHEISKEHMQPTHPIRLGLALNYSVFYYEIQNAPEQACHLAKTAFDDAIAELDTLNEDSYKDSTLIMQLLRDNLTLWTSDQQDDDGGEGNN

[2] = biological target: T2, BD/ANO1 seg(a) (human) (UniProt Q5XXA6); test: two-hybrid; conventional Y2H screening with ANO1 segment a as bait; positive clones isolated
T2 sequence: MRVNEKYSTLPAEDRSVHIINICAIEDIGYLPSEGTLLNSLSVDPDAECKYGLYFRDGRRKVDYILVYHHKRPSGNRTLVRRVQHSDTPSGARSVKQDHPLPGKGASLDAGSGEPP

[3] = biological target: T3, native ANO1 of glioblastoma cells (human (endogenous in U251, T98G, U138)) (UniProt Q5XXA6); test: co-IP; endogenous proteins, U251 lysate; IP with anti-ANO1 (ab53212), blot with anti-14-3-3γ (ab69592); 50 mM Tris-HCl pH 7.4, 150 mM NaCl, 5 mM EDTA, 0.1% Triton X-100
T3 sequence: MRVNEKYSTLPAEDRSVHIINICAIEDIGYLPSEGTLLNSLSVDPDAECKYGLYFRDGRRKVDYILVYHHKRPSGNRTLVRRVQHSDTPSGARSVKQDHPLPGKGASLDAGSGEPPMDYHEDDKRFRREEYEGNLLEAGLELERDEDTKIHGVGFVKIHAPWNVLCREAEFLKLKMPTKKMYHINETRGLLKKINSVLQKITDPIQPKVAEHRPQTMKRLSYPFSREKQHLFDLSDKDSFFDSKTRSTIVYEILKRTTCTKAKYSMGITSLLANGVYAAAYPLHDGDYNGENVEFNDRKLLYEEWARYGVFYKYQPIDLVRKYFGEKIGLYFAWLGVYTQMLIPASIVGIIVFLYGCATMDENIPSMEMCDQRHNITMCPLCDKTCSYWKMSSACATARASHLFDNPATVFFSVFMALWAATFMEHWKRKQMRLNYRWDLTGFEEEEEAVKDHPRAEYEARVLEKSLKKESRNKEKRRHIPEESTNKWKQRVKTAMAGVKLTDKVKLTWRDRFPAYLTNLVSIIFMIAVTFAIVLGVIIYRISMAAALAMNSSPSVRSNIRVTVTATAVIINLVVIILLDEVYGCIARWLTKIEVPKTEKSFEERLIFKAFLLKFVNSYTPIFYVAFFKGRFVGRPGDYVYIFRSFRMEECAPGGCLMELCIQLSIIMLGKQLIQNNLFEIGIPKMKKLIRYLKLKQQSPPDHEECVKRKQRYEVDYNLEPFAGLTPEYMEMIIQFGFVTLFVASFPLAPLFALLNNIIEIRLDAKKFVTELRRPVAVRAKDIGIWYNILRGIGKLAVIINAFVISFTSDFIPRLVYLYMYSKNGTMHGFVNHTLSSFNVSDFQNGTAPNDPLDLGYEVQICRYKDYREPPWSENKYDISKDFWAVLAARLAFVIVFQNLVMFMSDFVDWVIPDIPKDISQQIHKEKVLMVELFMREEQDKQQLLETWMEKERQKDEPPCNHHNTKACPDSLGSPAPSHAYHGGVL

[4] = biological target: T3, native ANO1 of glioblastoma cells (human (endogenous in U251, T98G, U138)); test: co-IP; data not shown; endogenous proteins in T98G and U138 cells
[5] = biological target: T3, native ANO1 of glioblastoma cells (human (endogenous in U251, T98G, U138)); test: proximity ligation; Duolink PLA in U251 cells with anti-ANO1 (ab64085, rabbit) and anti-14-3-3γ (ab118877, mouse); cells with Sc shRNA, shRNA knock-down as control
[6] = biological target: T4, segment a of ANO1 (co-IP constructs of Supplementary Figs 2a and 3c) (human) (UniProt Q5XXA6); test: co-IP; segment a with seven 14-3-3 isoforms (Supplementary Fig. 2a); lysates of transfected HEK293T cells; 50 mM Tris-HCl pH 7.4, 150 mM NaCl, 5 mM EDTA, 0.1% Triton X-100
T4 sequence: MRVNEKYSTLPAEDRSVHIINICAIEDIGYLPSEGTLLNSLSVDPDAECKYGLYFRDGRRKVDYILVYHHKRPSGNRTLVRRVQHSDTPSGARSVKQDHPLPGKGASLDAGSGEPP

[7] = biological target: T2, BD/ANO1 seg(a) (human); test: two-hybrid; BD/ANO1 seg(a) and AD/14-3-3γ co-transformed into yeast strain AH109; growth on medium without Thr, Leu and His (TLH-); empty vector as control

binding [2]: binds
B2: human 14-3-3γ (positive clone of the Y2H screen) (protein, UniProt P61981 1-247)
chain: MVDREQLVQKARLAEQAERYDDMAAAMKNVTELNEPLSNEERNLLSVAYKNVVGARRSSWRVISSIEQKTSADGNEKKIEMVRAYREKIEKELEAVCQDVLSLLDNYLIKNCSETQYESKVFYLKMKGDYYRYLAEVATGEKRATVVESSEKAYSEAHEISKEHMQPTHPIRLGLALNYSVFYYEIQNAPEQACHLAKTAFDDAIAELDTLNEDSYKDSTLIMQLLRDNLTLWTSDQQDDDGGEGNN

binding [3]: binds
binding [4]: binds
binding [5]: binds
B3: native 14-3-3γ of glioblastoma cells (protein, UniProt P61981 1-247)
chain: MVDREQLVQKARLAEQAERYDDMAAAMKNVTELNEPLSNEERNLLSVAYKNVVGARRSSWRVISSIEQKTSADGNEKKIEMVRAYREKIEKELEAVCQDVLSLLDNYLIKNCSETQYESKVFYLKMKGDYYRYLAEVATGEKRATVVESSEKAYSEAHEISKEHMQPTHPIRLGLALNYSVFYYEIQNAPEQACHLAKTAFDDAIAELDTLNEDSYKDSTLIMQLLRDNLTLWTSDQQDDDGGEGNN

Second part, the binder before the results:

B1: GFP-ANO1 seg(a) (domain or fragment, UniProt Q5XXA6 1-116)
chain: MRVNEKYSTLPAEDRSVHIINICAIEDIGYLPSEGTLLNSLSVDPDAECKYGLYFRDGRRKVDYILVYHHKRPSGNRTLVRRVQHSDTPSGARSVKQDHPLPGKGASLDAGSGEPP
binding [1]: binds

B4: 14-3-3γ (co-IP constructs of Supplementary Figs 2a and 3c) (protein, UniProt P61981 1-247)
chain: MVDREQLVQKARLAEQAERYDDMAAAMKNVTELNEPLSNEERNLLSVAYKNVVGARRSSWRVISSIEQKTSADGNEKKIEMVRAYREKIEKELEAVCQDVLSLLDNYLIKNCSETQYESKVFYLKMKGDYYRYLAEVATGEKRATVVESSEKAYSEAHEISKEHMQPTHPIRLGLALNYSVFYYEIQNAPEQACHLAKTAFDDAIAELDTLNEDSYKDSTLIMQLLRDNLTLWTSDQQDDDGGEGNN
binding [6]: binds

B5: AD/14-3-3γ (protein, UniProt P61981 1-247)
chain: MVDREQLVQKARLAEQAERYDDMAAAMKNVTELNEPLSNEERNLLSVAYKNVVGARRSSWRVISSIEQKTSADGNEKKIEMVRAYREKIEKELEAVCQDVLSLLDNYLIKNCSETQYESKVFYLKMKGDYYRYLAEVATGEKRATVVESSEKAYSEAHEISKEHMQPTHPIRLGLALNYSVFYYEIQNAPEQACHLAKTAFDDAIAELDTLNEDSYKDSTLIMQLLRDNLTLWTSDQQDDDGGEGNN
binding [7]: binds
